# Results published in PubChem BioAssay AID1487 (National Center for Advancing Translational Sciences (NCATS), 2009).
# This is one part of the list. These are further read-outs of the screen, such as a control signal, another cell line or another target. No call is given for them. Most of these compounds were active or inconclusive in the main read-out, so they are no random draw. The note in brackets gives the kind of curve behind each potency; many fits are weak.
# Assay: qHTS Assay for Modulators of Lamin A Splicing
# Conditions: HeLa LMNA splicing GFP/RFP minigene ratio, 48 h
# In short: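 S3 HeLa cells stably expressing lamin A-EGFP splicing minigene plus DsRed2, 600 cells/well, 48 h compound exposure at 37C. Laser-scanning cytometry; analysed as GFP (500-530 nm)/RFP (575-640 nm) total intensity ratio; 0.5% DMSO vehicle.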
# [1] = measured here: RFP viability control channel
# [2] = measured here: GFP splicing reporter channel
Compound,AC50 [1],AC50 [2]
Cc1ccccc1CNC(=O)Cn1nc(C)c2nn(-c3ccc(Cl)cc3)c(C)c2c1=O,"0.02 µM [falling, full curve, poor fit]",–
CCOC(=O)c1sc2ccccc2c1S(=O)(=O)Nc1cc(OC)ccc1OC,"11.2 µM [rising, partial curve, poor fit]",–
O=S(=O)(CCSc1nc2ccccc2o1)c1nc2ccccc2s1,"12.6 µM [falling, partial curve]","6.31 µM [falling, partial curve, poor fit]"
CC(C)=NOc1cc(NC(=O)CCl)cc([N+](=O)[O-])c1,"35.5 µM [rising, single point]","35.5 µM [rising, single point]"
CC1(C)C(C=C(Cl)Cl)C1C(=O)N1CCN(c2ccccc2)CC1 (centres undefined),"12.6 µM [rising, single point]","3.16 µM [rising, single point]"
COc1ccc(S(=O)(=O)N2CCN(Cc3ccccc3)CC2)cc1,"12.6 µM [rising, single point]",–
CCN(CC)S(=O)(=O)c1ccc(N(C)Cc2cccnc2)nc1,"12.6 µM [rising, partial curve]",–
Cc1cc(C)cc(C(=O)N2CC(=O)Nc3ccccc32)c1,"2.51 µM [rising, full curve]",–
Cc1cc(C)c(C(=O)Nc2ccccc2)c(CC(C)(C)C(=O)O)c1,"12.6 µM [rising, partial curve]","25.1 µM [rising, partial curve]"
Cc1c(C(=O)OCC(=O)c2c(N)n(CC(C)C)c(=O)n(C)c2=O)oc2ccccc12,"11.2 µM [rising, partial curve]",–
O=C(c1cc2ccccc2oc1=O)N(c1ccccc1)C1C=CS(=O)(=O)C1 (centres undefined),"5.01 µM [rising, partial curve]",–
Cc1nc(N2CCN(C(=O)c3ccco3)CC2)c2c3c(sc2n1)CCCC3,"22.4 µM [rising, single point]",–
COCCOC(=O)c1[nH]c2c(c1C)C(=O)CC(c1ccco1)C2 (centres undefined),"5.01 µM [rising, full curve]",–
CCCCNC(=S)N/N=C/c1sccc1C,"1.26 µM [falling, full curve, poor fit]","31.6 µM [rising, single point]"
CCc1ccc(CNC(=O)C2CCCN(S(=O)(=O)c3ccc4c(ccn4C)c3)C2)cc1 (centres undefined),–,"0.0794 µM [falling, full curve, poor fit]"
COc1ccc(CSCC(=O)Nc2ccc(S(=O)(=O)N3CCCCCC3)cc2)cc1,"35.5 µM [rising, single point]",–
CCc1cccc(CC)c1NC(=O)C1SC(=Nc2ccccc2C)C(c2nc3ccccc3s2)=C1N (centres undefined),"12.6 µM [rising, partial curve]",–
Cc1cc(=O)oc2c(C(=O)/C=C\c3cccs3)c(O)ccc12,"1.78 µM [rising, partial curve, poor fit]",–
Cc1nc2ccccn2c1C(=O)N/N=C/c1cc(C)n(-c2ccc(Br)cc2)c1C,"35.5 µM [rising, single point]","35.5 µM [rising, single point]"

Compound,AC50 [1],AC50 [2]
Nc1c2ccccc2nc2ccccc12,"12.6 µM [falling, partial curve]","0.398 µM [falling, full curve, poor fit]"
Cc1cccc(-n2ncc3c(NC(C)C)ncnc32)c1,"35.5 µM [rising, single point]",–
c1ccc(C2=Nn3c(nnc3-c3ccncc3)SC2)cc1,–,"35.5 µM [rising, single point]"
CCCCc1ccc(NC(=S)NN2CCOCC2)cc1,"14.1 µM [rising, single point]",–
Cc1cc(Cl)ccc1NC(=S)N1CCN(Cc2ccc3c(c2)OCO3)CC1,"2.51 µM [rising, partial curve]","1.41 µM [rising, partial curve, poor fit]"
O=C(Cc1cccc2ccccc12)N/N=C/c1ccc(Sc2cccc3cccnc23)o1,"35.5 µM [rising, single point]",–
COc1ccc(-n2cnc(N)c2C(=O)c2cccc([N+](=O)[O-])c2)cc1,"31.6 µM [rising, single point]",–
CC(=Nc1cccc(C)c1)c1sc2ccccc2c1O,"5.62 µM [falling, single point]","4.47 µM [falling, partial curve]"
COc1ccc(CNC(=O)CN2C(=O)CC(c3ccccc3)=Nc3ccccc32)cc1,"10 µM [falling, partial curve]",–
CCOc1ccc(S(=O)(=O)N2CCN(c3ccc(OC)cc3)CC2)c2cccnc12,"15.8 µM [rising, partial curve]","11.2 µM [rising, partial curve]"
CCN(CC)S(=O)(=O)c1ccc(N2CCOCC2)c(NCC(=O)Nc2ccc(F)cc2)c1,"0.501 µM [rising, full curve]",–
COc1cccc(-n2cn[nH]c2=S)c1,–,"1.26 µM [rising, full curve]"
O=C(N/N=C/c1ccc(N2CCOCC2)cc1)C1COc2ccccc2O1 (centres undefined),–,"7.08 µM [falling, partial curve, poor fit]"
CC(CCc1ccccc1)NC(=O)C1CCN(S(=O)(=O)N2CCOCC2)CC1 (centres undefined),–,"11.2 µM [rising, single point]"
Cc1cccc(NC(=O)c2sc3nc(N)c(C#N)cc3c2N)c1,"2.82 µM [rising, single point]",–
Cc1sc(NC(=O)c2ccco2)c(CN2CCN(Cc3ccccc3)CC2)c1C,"14.1 µM [rising, single point]","11.2 µM [rising, single point]"
O=C(CC1C(=O)NCCN1Cc1ccc(-c2ccccc2)cc1)NCCc1ccccn1 (centres undefined),"0.0891 µM [falling, full curve, poor fit]","0.112 µM [falling, full curve, poor fit]"
Cc1ccc(CNS(=O)(=O)c2cc3c(cc2Cl)NC(=O)CO3)o1,–,"0.631 µM [rising, single point]"

# Two successive entries already listed, for reference:
Compound,AC50 [1],AC50 [2]
CC(C)=NOc1cc(NC(=O)CCl)cc([N+](=O)[O-])c1,"35.5 µM [rising, single point]","35.5 µM [rising, single point]"
CC1(C)C(C=C(Cl)Cl)C1C(=O)N1CCN(c2ccccc2)CC1 (centres undefined),"12.6 µM [rising, single point]","3.16 µM [rising, single point]"
